This is a selection; strong and weak results do not stand in their true shares. At the low end of the ranking, values are background and their order means little.
biological target: SPI1 (UniProt P17947); assay: DAPPL (digital affinity profiling via proximity ligation, sequencing); conditions: 10 mM Tris-HCl pH 7.5, 50 mM NaCl, 1 mM DTT, 4% glycerol, room temperature, 30 min; GST-TFs on glutathione beads, 16-mer random dsDNA library, 0.1% …; high values mean tight binding; double strand, one strand shown; scale: fold enrichment (6-mer frequency, TF over GST control)

Which binding signal does the source give for CGGCTT here?
Its binding signal is 1.17.

TACACG was tested. Which binding signal did it give?
Its binding signal is 1.07.

How did the binding signal turn out when ACGGCC was run?
The binding signal was 1.09.

How did the binding signal turn out when GGGCTA was run?
Its binding signal is 0.974.

For CACTTG, which binding signal is on record?
Its binding signal is 1.39.

For TCTCGC, which binding signal is on record?
The binding signal was 1.69.

With CCTGGT as the sequence, how does the binding signal read?
The binding signal was 1.4.

Which binding signal does the source give for CCTATT here?
The binding signal was 1.55.

With CCGAAG as the sequence, how does the binding signal read?
The binding signal was 0.956.

How did the binding signal turn out when TCGAAT was run?
The binding signal was 0.954.

For TACTTA, which binding signal is on record?
The binding signal was 1.21.

For AATCGA, which binding signal is on record?
The binding signal was 0.969.

How did the binding signal turn out when TTCAAG was run?
Its binding signal is 1.2.

How did the binding signal turn out when TAATGT was run?
Its binding signal is 1.06.

How did the binding signal turn out when ATCTCC was run?
Its binding signal is 1.37.

With CCACGC as the sequence, how does the binding signal read?
The binding signal was 1.07.

How did the binding signal turn out when TAATTT was run?
Its binding signal is 1.38.

For ATCTAA, which binding signal is on record?
The binding signal was 1.13.

Which binding signal does the source give for ATACCA here?
The binding signal was 0.953.

For CTATTC, which binding signal is on record?
Its binding signal is 1.29.

TACGTA was tested. Which binding signal did it give?
The binding signal was 1.35.

For ATGTAA, which binding signal is on record?
Its binding signal is 1.23.

CATATA was tested. Which binding signal did it give?
The binding signal was 1.06.

How did the binding signal turn out when TATGTA was run?
The binding signal was 1.3.

For TCCCAC, which binding signal is on record?
Its binding signal is 1.34.

CTTTAA was tested. Which binding signal did it give?
The binding signal was 1.39.

With TTTAGG as the sequence, how does the binding signal read?
Its binding signal is 1.08.

TACGAA was tested. Which binding signal did it give?
The binding signal was 1.15.

TAAGCT was tested. Which binding signal did it give?
The binding signal was 1.1.

Which binding signal does the source give for ATGAGC here?
Its binding signal is 1.13.

Which binding signal does the source give for GTATTA here?
Its binding signal is 1.04.

For ACCATA, which binding signal is on record?
Its binding signal is 1.13.

Which binding signal does the source give for CCGCCT here?
The binding signal was 1.5.

For TTGCCG, which binding signal is on record?
The binding signal was 1.12.

With GAACCT as the sequence, how does the binding signal read?
The binding signal was 1.11.

How did the binding signal turn out when TTTTTA was run?
The binding signal was 1.47.

Source: publication PMC7862700
